# Laboratory results: PubChem BioAssay (NCATS)
# Protein sequences, listed by entry. Tags and fused reporters are not part of them. Lines headed by an entry give the natural chain unless they say otherwise; changes in a name come on top.
# UniProt P10635, whole entry, looked up: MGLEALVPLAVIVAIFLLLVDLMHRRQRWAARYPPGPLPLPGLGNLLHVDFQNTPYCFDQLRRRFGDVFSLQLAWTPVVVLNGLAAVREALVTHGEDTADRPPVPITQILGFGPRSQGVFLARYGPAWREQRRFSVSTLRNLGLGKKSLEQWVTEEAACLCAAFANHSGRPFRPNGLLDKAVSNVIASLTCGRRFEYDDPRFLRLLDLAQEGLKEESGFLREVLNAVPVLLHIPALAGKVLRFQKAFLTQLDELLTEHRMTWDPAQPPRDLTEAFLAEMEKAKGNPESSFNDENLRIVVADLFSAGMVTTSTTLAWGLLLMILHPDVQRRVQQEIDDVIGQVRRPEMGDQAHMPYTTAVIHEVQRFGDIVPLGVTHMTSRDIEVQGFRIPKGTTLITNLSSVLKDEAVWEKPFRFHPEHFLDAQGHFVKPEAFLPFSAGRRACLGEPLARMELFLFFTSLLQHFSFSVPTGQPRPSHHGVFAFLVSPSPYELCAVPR
# UniProt O94782: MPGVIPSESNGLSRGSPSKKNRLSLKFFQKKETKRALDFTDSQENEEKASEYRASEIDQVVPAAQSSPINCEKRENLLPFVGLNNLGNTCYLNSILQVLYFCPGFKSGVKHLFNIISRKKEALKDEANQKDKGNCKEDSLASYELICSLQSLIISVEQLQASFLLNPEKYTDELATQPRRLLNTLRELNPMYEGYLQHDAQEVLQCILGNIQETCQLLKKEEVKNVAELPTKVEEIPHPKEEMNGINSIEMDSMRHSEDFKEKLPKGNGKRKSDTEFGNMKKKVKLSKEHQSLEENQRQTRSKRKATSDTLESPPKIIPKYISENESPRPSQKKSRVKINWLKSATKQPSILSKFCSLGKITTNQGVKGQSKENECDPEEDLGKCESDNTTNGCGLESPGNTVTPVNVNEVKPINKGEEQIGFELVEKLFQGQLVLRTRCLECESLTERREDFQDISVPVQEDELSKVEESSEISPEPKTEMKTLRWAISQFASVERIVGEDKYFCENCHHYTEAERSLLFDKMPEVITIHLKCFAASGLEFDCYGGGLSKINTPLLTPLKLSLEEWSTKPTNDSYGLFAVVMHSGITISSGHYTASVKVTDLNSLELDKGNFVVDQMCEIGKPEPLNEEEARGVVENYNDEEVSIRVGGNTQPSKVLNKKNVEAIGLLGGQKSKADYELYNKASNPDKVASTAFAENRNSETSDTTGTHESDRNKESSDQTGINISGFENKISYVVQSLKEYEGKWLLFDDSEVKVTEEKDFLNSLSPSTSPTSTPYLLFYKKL
# Inconclusive results, whose numbers are uncertain, are shown with a selection of clear calls. For some of these results: A potency beside an inconclusive call is a rough fit, not a confirmed value. Calls of active or inactive are those of the source. Unless noted, calls come from the whole dose curve; as a rule, active = well fitted curve in the direction sought with a large enough effect; inconclusive = small, poorly fitted or top-dose-only effect, or another doubt; inactive = no such curve, though single readings can be large; an effect the other way counts as inactive or inconclusive.
# What was measured:
# [1] = qHTS of pediatric cancer cell lines to identify multiple opportunities for drug repurposing: Confirmatory screen for SK-N-MC cells (AID 1347111);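 note: cells exposed to compound for 48 h before the readout; nearly all actives have a fitted effect of over 70% in size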
# Outline: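 Seed 500-1,000 cells/well; rest 5 h at 37 degrees C. Pin-transfer compounds, 11-point titration. Incubate 48 h. Add CellTiter-Glo, 15 min RT, read luminescence.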
# [2] = qHTS of pediatric cancer cell lines to identify multiple opportunities for drug repurposing: Confirmatory screen for BT-37 cells (AID 1347117);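 note: viability measured after 48 h of compound exposure; nearly all actives have a fitted effect of over 55% in size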
# Outline: (§1)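 Cells (500-1,000/well) rested 5 h, then received compounds for 48 h; metabolically active cells were measured by CellTiter-Glo luminescence. Final concentrations spanned up to 46 µM (MIPE, 11-point) or 0.59 nM-46 µM (NPC, 8-point) in primary screens, 11-point in follow-ups.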
# [3] = qHTS of pediatric cancer cell lines to identify multiple opportunities for drug repurposing: Confirmatory screen for Rh41 cells (AID 1347123);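 note: 48 h compound exposure; nearly all actives have a fitted effect of over 60% in size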
# Outline: as §1
# [4] = biological target: Cytochrome P450 2D6 (Homo sapiens) (UniProt P10635); test: Cytochrome P450 family 2 subfamily D member 6 (CYP2D6) small molecule antagonists: luciferase biochemical (cell-free) qHTS assay (AID 1645840; active = well fitted curve in the direction sought with a large enough effect in the repeat runs; inconclusive = weak or mixed curves; inactive = no such curve, though single readings can be large; an effect the other way counts as inactive or inconclusive; note: nearly all actives have a fitted effect of over 55% in size)
# Outline: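 P450-Glo luminescent screen: recombinant CYP2D6 enzyme–proluciferin substrate mix preincubated with compound 10 min at room temperature, then NADPH regeneration added for 1 h at room temperature. Detection reagent added for 20 min; luciferin light read as relative luminescence units.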
# [5] = Quantitative High-Throughput drug screen in 47 multiple myeloma cell lines against the NCATS MIPE library collection: KMS26_JCRB cell viability assay (AID 1918975); conditions: KMS26 myeloma cells viability, CellTiter-Glo ATP, 48 h; series mostly up to 45.8 µM; note: nearly all actives have a fitted effect of over 45% in size
# Outline: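 Relative luminescence from CellTiter-Glo served as the viability signal, referenced to DMSO-treated (100%) and cell-free medium (0%) controls. Treatment lasted 48 hours at 37C with 500 cells per well.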
# [6] = biological target: Ubiquitin carboxyl-terminal hydrolase 1 (Homo sapiens) (UniProt O94782); test: Inhibitors of USP1/UAF1: Pilot qHTS (AID 504865); note: nearly all actives have a fitted effect of over 35% in size
# Outline: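 Enzyme-free wells gave the negative control, while test wells held 1nM USP1/UAF1 preincubated with compound for 15 min at room temperature. Ub-Rho at 150nM final started the reaction, and fluorescence at 480/540 nm was recorded kinetically.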
# [7] = Quantitative High-Throughput drug screen in 47 multiple myeloma cell lines against the NCATS MIPE library collection: FR4_PLB cell viability assay (AID 1918924; note: nearly all actives have a fitted effect of over 35% in size)
# Outline: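 Luminescent ATP measurement with CellTiter-Glo gives viability, scaled between DMSO-only wells (100%) and media-only wells (0%). Cells, 500 per well, faced library compounds for 48 hours at 37C.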
# [8] = Identifying Small Molecule Inhibitors of Pancreatic Cancer Stem Cells (SN12C, Adherent) (AID 1259358);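 note: cell survival measured after 48 h of compound exposure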
# Outline: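 Adherent (2D) versus sphere (3D) formats; spheres generated 14 d in SCM beforehand. Compound transferred by pin tool after 4 h, 48 h incubation, CellTiter-Glo endpoint.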
# [9] = system: Zika virus NS2B-NS3 protease (unlinked complex); test: Primary screen GU Rhodamine qHTS for Zika virus inhibitors: Unlinked NS2B-NS3 protease assay (AID 1347159); note: nearly all actives have a fitted effect of over 60% in size
# Outline: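 Percent inhibition derives from the 15-min fluorescence change (ex 480, em 540 nm), normalized to no-enzyme and no-inhibitor wells. Reactions contained 25 nM NS2B-NS3 complex and 1.5 microM substrate in 10 mM Tris-HCl pH 8.0.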
# [10] = Primary fluorescence-based thiol-reactive (MSTI) qHTS assay for identification of artifact compounds. (AID 1845221); note: nearly all actives have a fitted effect of over 65% in size
# Outline: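 In PBS pH 7.4 with 2% DMSO, each compound met 4 uM MSTI for one hour at ambient temperature, shielded from light, before fluorescence detection.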
# [11] = qHTS of pediatric cancer cell lines to identify multiple opportunities for drug repurposing: Confirmatory screen for TC32 cells (AID 1347118);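 note: cells exposed to compound for 48 h before the read; nearly all actives have a fitted effect of over 65% in size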
# Outline: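 Luminescent ATP read-out (CellTiter-Glo) of metabolically active TC32 cells after 48 h exposure. Concentration-response curves came from 11-point (MIPE, 0.78 nM–46 µM) or 8-point (NPC, 0.59 nM–46 µM) primary titrations; follow-up used 11 points.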
# Potency is the fitted concentration of half-maximal effect.
smiles,measurement,setting,value
C=C1C(=CC=C2CCC[C@]3(C)[C@@H]([C@H](C)C=C[C@H](C)C(C)C)CC[C@@H]23)C[C@@H](O)C[C@@H]1O,Potency,[1],"inconclusive: 32.9 µM [cytotoxic, single point]"
same,Potency,[2],"inconclusive: 26.1 µM [cytotoxic, single point]"
same,Potency,[3],"inconclusive: 26.1 µM [cytotoxic, single point]"
same,Potency,[4],"inconclusive: 19 µM [inhibitor, single point]"
same,Potency,[5],active: 2.35 µM
CCN(c1ccccc1)c1cc(NC)[n+](C)c(C)n1,Potency,[6],"inconclusive: 100 µM [inhibitor, partial curve, poor fit]"
N#Cc1ccc(COC[C@H]2O[C@@H](n3c(NCc4ccc(Cl)c(Cl)c4)nc4c(N)ncnc43)[C@@H](O)[C@@H]2O)cc1,Potency,[7],active: 13.2 µM
O=C(Nc1cc(C(F)(F)F)cc(C(F)(F)F)c1)c1cc(Cl)ccc1O,Potency,[8],"inconclusive: 0.935 µM [cytotoxic, full curve]"
same,Potency,[3],"inconclusive: 0.657 µM [cytotoxic, full curve, poor fit]"
same,Potency,[9],active: 2.82 µM
same,Potency,[10],"inconclusive: 0.752 µM [inhibitor, full curve, poor fit]"
COc1cc(C)c(Sc2cnc(NC(=O)c3ccc(CNC(C)C(C)(C)C)cc3)s2)cc1C(=O)N1CCN(C(C)=O)CC1 (configuration not stated),Potency,[8],"inconclusive: 23.5 µM [cytotoxic, single point]"
CC1(C)CNc2cc(NC(=O)c3cccnc3NCc3ccncc3)ccc21,Potency,[10],"inconclusive: 3.77 µM [inhibitor, partial curve]"
same,Potency,[7],"inconclusive: 37.2 µM [cytotoxic, single point]"
CC1(C)CCC(c2ccc(Cl)cc2)=C(CN2CCN(c3ccc(C(=O)NS(=O)(=O)c4ccc(N[C@H](CCN5CCOCC5)CSc5ccccc5)c(S(=O)(=O)C(F)(F)F)c4)cc3)CC2)C1,Potency,[8],"inconclusive: 29.6 µM [cytotoxic, single point]"
same,Potency,[1],"inconclusive: 4.65 µM [cytotoxic, full curve, poor fit]"
same,Potency,[11],inactive
same,Potency,[3],inactive
COc1cc2nccc(Oc3ccc(NC(=O)C4(C(=O)Nc5ccc(F)cc5)CC4)cc3)c2cc1OC,Potency,[1],"inconclusive: 18.5 µM [cytotoxic, partial curve, poor fit]"
same,Potency,[2],"inconclusive: 18.5 µM [cytotoxic, partial curve]"
CN(C)CCCN=c1c2ccccc2n(C)c2[nH]c(=O)n(C)c(=O)c12,Potency,[1],"inconclusive: 36.9 µM [cytotoxic, single point]"
same,Potency,[11],"inconclusive: 26.1 µM [cytotoxic, single point]"
